Reference: the supplement of paper PMC9254222
Over roughly 1,100 compounds, “Wnt reporter firefly/Renilla luciferase ratio relative to plate median” has its median near 1.1; the highest 2% begin near 1.6. The entries are a selection whose mix differs from that of the whole data set.

Tested on: HEK293T (UBE3A T485A transfected, BAR Wnt reporter)
Test: Wnt reporter firefly/Renilla luciferase ratio relative to plate median (fold (linear ratio)); higher = more Wnt/beta-catenin reporter activation
Conditions: 24 h
Summary of the method: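 HEK293T cells carrying a transfected BAR firefly luciferase Wnt reporter, TK-Renilla and an expression plasmid were exposed to chemicals at 0.01–100 uM for 24 h, with dosing four hours after transfection. Readout used Dual-Glo luciferase. The firefly/Renilla ratio defined Wnt activity and raw Renilla defined cell health, each median-centred per plate. Figures are means of four biological replicates.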

SMILES	Wnt reporter firefly/Renilla luciferase ratio (concentration: 0.01 uM)	Wnt reporter firefly/Renilla luciferase ratio (concentration: 0.1 uM)	Wnt reporter firefly/Renilla luciferase ratio (concentration: 1 uM)	Wnt reporter firefly/Renilla luciferase ratio (concentration: 10 uM)	Wnt reporter firefly/Renilla luciferase ratio (concentration: 100 uM)
CCCN(CCC)c1c([N+](=O)[O-])cc(S(N)(=O)=O)cc1[N+](=O)[O-] [Oryzalin]	0.986	1.11	0.982	1.26	0.391
O=C(Oc1ccc(Br)cc1)N1CCN2CCC1CC2	–	1.11	0.988	1.09	0.334
Cc1ccccc1N [2-Methylaniline]	–	0.986	0.825	1.14	1.03
Cc1ccccc1O [o-Cresol]	–	1.01	0.966	1.1	1.15
Cc1ccc(/N=C/N(C)/C=N/c2ccc(C)cc2C)c(C)c1 [Amitraz]	1.05	1.33	1.21	1.03	–
CCNc1nc(Cl)nc(NCC)n1 [Simazine]	1	1.19	1.01	1.06	1.52
O=[N+]([O-])c1ccccc1 [Nitrobenzene]	–	0.922	0.907	1.31	1.49
Cc1sc2c(c1C)C(c1ccc(Cl)cc1)=NC(CC(=O)OC(C)(C)C)c1nnc(C)n1-2 (racemic)	0.31	0.189	0.19	0.159	0.255
O=C(O)C(F)(F)C(F)(F)C(F)(F)C(F)(F)C(F)(F)C(F)(F)C(F)(F)F	–	1.71	–	–	–
C=C(C)C(=O)[O][Sn]([CH2]CCC)([CH2]CCC)[CH2]CCC [Tributyltin methacrylate]	–	0.639	0.638	0.679	–
O=NN(c1ccccc1)c1ccccc1 [N-Nitrosodiphenylamine]	–	1.58	0.967	1.37	0.944
CCCN(CCC)c1c([N+](=O)[O-])cc(C(F)(F)F)cc1[N+](=O)[O-] [Trifluralin]	0.696	0.895	0.886	0.94	1.1
CNC(=O)ON=CC(C)(C)SC [Aldicarb]	1.15	1.15	1.07	1.38	1.49
CCCN(CCC)N=O [N-Nitrosodipropylamine]	–	1.18	0.939	1.15	1.06
COP(=S)(OC)Oc1nc(Cl)c(Cl)cc1Cl [Chlorpyrifos-methyl]	0.792	0.841	1.02	1.18	0.905
CCCCC(O)(Cn1cncn1)c1ccc(Cl)cc1Cl (stereo not drawn) [Hexaconazole]	0.917	0.897	1	0.919	0.397
ClC1=C(Cl)C2(Cl)C3C(Cl)C(Cl)CC3C1(Cl)C2(Cl)Cl (stereo not drawn) [Chlordane]	–	0.951	1.02	1.34	1.4
CC1C(c2ccc(Cl)cc2)SC(=O)N1C(=O)NC1CCCCC1 (stereo not drawn) [Hexythiazox]	1.1	1.15	0.988	0.99	0.197
Clc1cccc(Cl)c1 [1,3-Dichlorobenzene]	–	–	–	–	1.77
COC(=O)N(OC)c1ccccc1COc1ccn(-c2ccc(Cl)cc2)n1 [Pyraclostrobin]	0.779	0.977	0.555	0.524	0.536
N#CN [Cyanamide]	1.07	1.11	1.33	1.1	1.18
O=S(=O)([O-])C(F)(F)C(F)(F)C(F)(F)C(F)(F)C(F)(F)C(F)(F)F.[K+]	–	1.21	0.967	1.07	1.21

Shown bar-delimited: entries from further up.
SMILES | Wnt reporter firefly/Renilla luciferase ratio (concentration: 0.01 uM) | Wnt reporter firefly/Renilla luciferase ratio (concentration: 0.1 uM) | Wnt reporter firefly/Renilla luciferase ratio (concentration: 1 uM) | Wnt reporter firefly/Renilla luciferase ratio (concentration: 10 uM) | Wnt reporter firefly/Renilla luciferase ratio (concentration: 100 uM)
Cc1ccccc1O [o-Cresol] | – | 1.01 | 0.966 | 1.1 | 1.15
Cc1ccc(/N=C/N(C)/C=N/c2ccc(C)cc2C)c(C)c1 [Amitraz] | 1.05 | 1.33 | 1.21 | 1.03 | –

Next part.

SMILES	Wnt reporter firefly/Renilla luciferase ratio (concentration: 0.01 uM)	Wnt reporter firefly/Renilla luciferase ratio (concentration: 0.1 uM)	Wnt reporter firefly/Renilla luciferase ratio (concentration: 1 uM)	Wnt reporter firefly/Renilla luciferase ratio (concentration: 10 uM)	Wnt reporter firefly/Renilla luciferase ratio (concentration: 100 uM)
CC(c1ccc(O)cc1)(c1ccc(O)cc1)c1ccc(O)cc1 [4,4',4"-Ethane-1,1,1-triyltriphenol]	–	0.816	0.754	0.745	–
O=C(NC(=O)c1cc(F)c(F)cc1Cl)Nc1cc(F)ccc1N1CCC(C(=O)O)CC1	–	1.08	1.29	0.978	0.514
Oc1c(Cl)c(Cl)c(Cl)c(Cl)c1Cl [Pentachlorophenol]	–	1.04	1.08	0.963	0.759
CCCCSP(=O)(SCCCC)SCCCC [Tribufos]	1.21	1.4	1.17	1.38	0.296
[OH][Sn]([c]1ccccc1)([c]1ccccc1)[c]1ccccc1 [Triphenyltin hydroxide]	1.28	1.32	0.361	–	–
CCCCN(CCCC)N=O [N-Nitrosodibutylamine]	–	0.968	0.902	1.04	1.27
Cc1ccc(N=C=O)cc1N=C=O [Toluene-2,4-diisocyanate]	–	0.92	1.12	1.04	0.634
COC(=O)Nc1nc2ccccc2[nH]1 [Carbendazim]	–	1.09	1.16	0.661	0.13
CC(=O)[O][Hg][c]1ccccc1 [Phenylmercuric acetate]	–	1.22	0.898	–	–
C[Si](Cn1cncn1)(c1ccc(F)cc1)c1ccc(F)cc1 [Flusilazole]	1.16	1.15	1.14	0.76	0.233
Nc1ccc(Cc2ccc(N)cc2)cc1 [4,4'-Methylenedianiline]	–	0.986	0.929	0.859	0.755
c1cc2c3c(cccc3c1)CC2 [Acenaphthene]	–	1.11	0.989	1.28	1.37
S=C1NCCN1 [Ethylene thiourea]	0.774	0.79	0.959	0.777	1.14
OCCOc1ccccc1 [2-Phenoxyethanol]	0.516	0.531	0.545	0.71	0.949
CC12CC1(C)C(=O)N(c1cc(Cl)cc(Cl)c1)C2=O (stereo not drawn) [Procymidone]	–	1.01	0.884	0.894	0.955
CCCCC(CC)COC(=O)c1ccccc1C(=O)O (stereo not drawn)	1.04	0.861	1.04	0.979	0.821
COC(=O)C(C)Oc1ccc(Oc2ccc(Cl)cc2Cl)cc1 (stereo not drawn) [Diclofop-methyl]	1.1	1.28	1.98	1.27	1.29
C=CCC1=C(C)[C@@H](OC(=O)[C@@H]2[C@@H](C=C(C)C)C2(C)C)CC1=O [S-Bioallethrin]	1.29	1.29	1.27	1.22	1.09
CNC(=O)CSP(=S)(OC)OC [Dimethoate]	0.95	0.993	1.02	1.02	1.1
COc1cc(OC)nc(NC(=O)[N-]S(=O)(=O)c2ncccc2OCC(F)(F)F)n1.[Na+] [Trifloxysulfuron-sodium]	1.06	1.02	1.23	1.22	1.52
Nc1ccc(Cl)cc1N [4-Chloro-1,2-diaminobenzene]	–	1.1	1.03	0.852	–
CCOC(=O)C(Cl)Cc1cc(-n2nc(C)n(C(F)F)c2=O)c(F)cc1Cl (stereo not drawn) [Carfentrazone-ethyl]	1.07	0.973	0.982	0.945	1.28

SMILES	Wnt reporter firefly/Renilla luciferase ratio (concentration: 0.01 uM)	Wnt reporter firefly/Renilla luciferase ratio (concentration: 0.1 uM)	Wnt reporter firefly/Renilla luciferase ratio (concentration: 1 uM)	Wnt reporter firefly/Renilla luciferase ratio (concentration: 10 uM)	Wnt reporter firefly/Renilla luciferase ratio (concentration: 100 uM)
ClC1=C(Cl)C2(Cl)C3C4CC(C5OC45)C3C1(Cl)C2(Cl)Cl (stereo not drawn) [Endrin]	–	1.07	0.855	1.12	0.323
ClC1=C(Cl)C2(Cl)C3C4CC(C5OC45)C3C1(Cl)C2(Cl)Cl (stereo not drawn) [Dieldrin]	–	0.889	0.963	1.08	1.16
Oc1ccc(Cl)cc1Cc1ccccc1 [Clorophene]	0.901	1.05	1.07	0.943	–
COC(=O)N(C(=O)N1CO[C@@]2(C(=O)OC)Cc3cc(Cl)ccc3C2=N1)c1ccc(OC(F)(F)F)cc1 [Indoxacarb]	0.92	0.96	1.2	0.895	0.242
CCOP(=S)(OCC)Oc1cc(C)nc(C(C)C)n1 [Diazinon]	0.789	0.815	1.01	1.25	1.14
CCOP(=S)(OCC)Oc1ccc2c(C)c(Cl)c(=O)oc2c1 [Coumaphos]	0.839	0.808	0.989	1.05	1.32
NC(=O)[O-].[NH4+] [Ammonium carbamate]	–	0.817	0.94	0.934	1.31
N#CC(CCc1ccc(Cl)cc1)(Cn1cncn1)c1ccccc1 (stereo not drawn) [Fenbuconazole]	1.07	1.01	1.03	0.614	0.347
COP(=O)(NC(C)=O)SC (stereo not drawn) [Acephate]	1.49	1.19	1.03	1.08	1.16
COP(=O)(OC)OC=C(Cl)Cl [Dichlorvos]	–	1.67	–	–	–
CCN(CC)c1nc(C)cc(OP(=S)(OC)OC)n1 [Pirimiphos-methyl]	1.29	1.12	1.11	1.23	1.5
O=C(N[C@H]1CN2CCC1CC2)c1ccc2c(c1)OCCO2	–	1	1.05	1.15	1.12
Nc1ccc(/N=N/c2ccccc2)cc1 [4-Aminoazobenzene]	–	1.33	1.25	1.37	1.28
CCCCC(CC)COC(=O)c1ccc(C(=O)OCC(CC)CCCC)cc1 (stereo not drawn) [Bis(2-ethylhexyl) terephthalate]	–	1.01	1.03	0.825	1.26
O=C(O)C(Cl)Cl [Dichloroacetic acid]	–	1.04	0.862	1.1	1.33
COP(=O)(OC)C(O)C(Cl)(Cl)Cl (stereo not drawn) [Trichlorfon]	1.06	1.1	1.06	1.1	0.494
CCCCNC(=O)n1c(NC(=O)OC)nc2ccccc21 [Benomyl]	1.07	0.957	0.996	0.468	0.876
CNC(=O)Oc1cccc2c1OC(C)(C)C2 [Carbofuran]	–	0.917	0.916	0.727	0.571
OCCOCCO [Diethylene glycol]	–	0.95	1.26	1.09	1.15
CCCCCCCCCC(CC)c1ccc(S(=O)(=O)O)cc1.OCCN(CCO)CCO (stereo not drawn) [Dodecylbenzene sulfonate triethanolamine(1:1)]	–	1.13	1.29	1.13	1.01
c1cc2ccc3cccc4ccc(c1)c2c34 [Pyrene]	–	1.09	0.96	1.05	0.354
